Data: paper PMC4169405
No constants are given. Whether binding was seen depends on the method and setting. In cells and extracts the contact can be indirect. A yes stands for co-enrichment or nearness to the bait. Other partners may have been found. Sequences can lack the tags named with a protein. Each block holds one binder with its values, some of them ahead of it.

Target: T1, N-terminally strep-tagged HdrD1, heterodisulfide reductase, subunit D (Methanosarcina acetivorans C2A) (UniProt Q8TSV7)
T1 sequence: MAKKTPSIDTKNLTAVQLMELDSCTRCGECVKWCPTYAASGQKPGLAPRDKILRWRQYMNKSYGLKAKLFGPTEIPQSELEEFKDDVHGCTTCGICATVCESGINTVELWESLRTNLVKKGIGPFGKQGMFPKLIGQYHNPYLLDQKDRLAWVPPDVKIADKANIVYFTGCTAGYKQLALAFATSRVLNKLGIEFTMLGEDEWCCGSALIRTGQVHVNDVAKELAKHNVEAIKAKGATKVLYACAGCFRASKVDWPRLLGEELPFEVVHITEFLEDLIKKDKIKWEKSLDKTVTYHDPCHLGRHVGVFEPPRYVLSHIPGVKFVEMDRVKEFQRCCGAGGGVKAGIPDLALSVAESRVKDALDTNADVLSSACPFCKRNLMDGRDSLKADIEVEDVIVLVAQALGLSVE
Experiment: affinity purification with mass spectrometry; in vivo DMS crosslinking of methanol-grown M. acetivorans cells, whole lysate batch-bound to streptavidin agarose resin, biotin elution, trypsin digest, LC-MS/MS with MASCOT; proteins found in mock purifications from control cells subtracted; biological duplicates; room temperature, anaerobic

B3: CdhC, acetyl-CoA decarbonylase/synthase complex subunit beta (MA3862) (protein, UniProt Q8TJC4 1-470)
chain: MAEFPFEISPMFEGERVRKEGMFVELGGPKSLGLELVRAKPMDEIEDDKVTIVGPDLKEMEEGKTYPWAMIFNIGGELVEPDLESVVERRVHDFINYCQGIMHLNQRYDVWMRVSKDTAAKMDSFEPFGQAVMMLFKTELPFIEKMQVTFYTEQAEVEKQLEEAKAIFKARDERTKDLHDEDVDVFYGCTLCQSFAPTNVCVVSPDRVSLCGAINWFDGRAAAKVDPEGPQFEITKGDLIDAEKGEYTGVNDIAKKLSAGEFDKIKLHSFFDAPHTSCGCFEVVGFYIPEVDGIGWVNREYQGMAPNGIGFSTMAGQTGGGKQIVGFLGIGINYFYSPKFIQADGGWNRVVWLPSMLKDKIAETIPEDLKDKIATENDATDIESLKAFLQEKGHPVVATWAAAEEEEEEEEEEEEEVAVAAAPMMMPAAGFQMPAMPMMSGGSSGGIKLTFKNAKITIDKMIISEKKEKK
binding: binds

B4: CdhC, acetyl-CoA decarbonylase/synthase complex subunit beta (MA1014) (protein, UniProt Q8TRZ6 1-469)
chain: MVEFPFEISPMFEGERVRKEGMFVELGGPKSLGLELVRAKPMDEIEDDKVTIVGPDLKEMEEGKTYPWAMIFNIGGELVEPDLESVVERRVHDFINYCQGIMHLNQRYDVWMRVSKDTAAKMDSFEPFGQAVMMLFKTELPFIEKMQVTFYTEQAEVEKQMETAKEIFKARDERTKDLHDEDVDVFYGCTLCQSFAPTNVCVVSPDRVSLCGAINWFDGRAAAKVDPEGPQFEIAKGDLLDANTGEYTGVNDIAKKLSAGEFDKIKLHSFFDSPHTSCGCFEVVGFYIPEVDGIGWVNREYQGMAPNGIGFSTMAGQTGGGKQIVGFLGIGINYFYSPKFIQADGGWNRVVWLPSMLKDKIIDTIPEDLKDKIATENDSTDIESLKAFLQEKGHPVVATWAAEEEEEEEEEEEEEVAVAAAPMMMPAAGFQMPAMPMMSGGSSGGIKLTFKNAKITIDKMIISEKKEKK
binding: binds

Second part, the binder after the results:

binding: binds
B1: molecular chaperone DnaK (protein, UniProt Q8TQR2 1-617)
chain: MAKILGIDLGTTNSCMAVMEGGDAVVLPNAEGSRTTPSVVGFSKKGEKLVGQVAKRQAISNPENTVYSIKRHMGEANYKVTLNGKTYTPQEISAMILQKLKTEAEAYLGETIKQAVITVPAYFNDAQRQATKDAGSIAGLEVLRIINEPTAASLAYGLDKGDVDQKILVYDLGGGTFDVSILELGGGVFEVKSTSGDTHLGGDDFDQRVIDHLLAEFKKTEGIDLSKDKAILQRLKDAAEKAKIELSGVTVTNINLPFLTVGPDGEPKHMDIDLTRAQFQKMTEDLLEKTLVSMRRALSDSKLTPNDLDKVILVGGATRMPAVVELVENFTGKKPYKNINPDEAVAIGAAIQAGVLGGEVKDVLLLDVTPLTLGIETLGGIATPLIQRNTTIPTKKSQIFSTAADNQPSVEIHVLQGERGIASENKTLGRFTLDGIPPAPRGIPQIEVAFDIDANGILHVNAKDLGTGKEQSISIQKPGGLSDAEIERMVKDAELHAEEDKKRKEEVETRNNAEALINAAEKTIKEAGDVATEDQKSKVNAAIEDLKKALEGKDTEEVKAKTEALQEAVYPISTAMYQKAQQEAQQASGEAGSADARGPDETVVDADYEVVDDEKRK

binding: binds
B2: Mer, methylenetetrahydromethanopterin reductase (enzyme, UniProt Q8TJP7 1-328)
chain: MKFGIEFVPSDPALKIAYYAKLSEQQGFDYVWITDHYNNRDVYSTLTVLALNTNSIKIGSGVTNSYTRNPAITASSIASIAEISGGRAVLGLGPGDKATFDAMGIAWEKPLATTKEAIQAIRDFIAGKKVSMDGEMVKFAGAKLAFKAGNVPIYMGAQGPKMLELAGEVADGVLINASHPKDFEVAVEQIRKGAEKVGRDPSEVDVTAYACFSIDKDPAKAINAAKVVVAFIVAGSPDLVLERHGIPVDAKKQIGDAIAKGDFGALMGGLVTPQMIEAFAICGTPEDCMKRIKDLEAIGVTQIVAGSPIGPEKEKAIKLIGKEIIAKM
